Drawing on PubChem BioAssay AID1508600 (Functional Genomics Laboratory (NCATS/FGL), 2020), this text covers z-score for 107 sequences.

Screen size: about 53,000 sequences; about 3,700 (7%) were called active.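 The calls were made as follows: active = gene knockdowns whose robust z-score for IL-1 alpha signal is at least 2 or at most -2, so actives lie on both sides; inactive = the rest.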 The list shows a part of the results.

The assay is described as follows: Components of the Cytosolic LPS Sensing Pathway: Gene Identification via Genome-wide siRNA Screen.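 Also: robust z of the log signal after scaling to non-targeting control siRNA wells of the plate.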 The note with it: RAW264.7 macrophages, IL-1a HTRF, actives lie on both sides, screened at 100 nM (by protocol), cells primed 5 h with Pam3CSK4 first. In outline:
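Read-out: IL-1a HTRF on supernatant, divided by plate negative-control median ×100, log-transformed and converted to robust z-score. Cells were RAW264.7 given 100 nM siRNA, Pam3CSK4-primed 5 hours, then LipidA-transfected 24 hour.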
On the technique in general: Time-resolved FRET reads energy transfer from a long-lived donor to a nearby acceptor.
Regarding GGAUAUUCAAAUGGGUGCCTT against Bcl7b, the z-score was inactive: 0.538.
On to CCACAAUGAAUGGUAUUUGTT against Slc41a2, for which the z-score was inactive: 1.2.
Next, GGAGAUUUCCCGACUUAACTT against Tnip2: inactive: 1.68; CCUUUGGAUCAUGCUACAATT against Csn2: inactive: -1.05; GGCUCAAGGACAGAUGAUGTT against Hsp90b1: inactive: -1.72.
Next, GCAUAUUUGCUCCAUUGAUTT against Olfr1162: inactive: -0.609; GCAAUUAUAUUUGUUCGGGTT against Ptpdc1: inactive: 0.55.
The figure for GGGAAUUUACCAAGUACCCTT against Nedd9 is inactive: 1.53; for GGAUAUCCAAGCUUUUGAATT against Dnajc9 it is inactive: -0.0734; for GCUUUGUUCUAAAUUCAUGTT against Cd2ap it is inactive: 0.843.
For the sequence GGCUUUGACCUUUAUCACCTT against Bcdin3d, the z-score was inactive: -0.473.
With GGAAAAACUGUGCAAAUAATT against Krt75, the z-score is inactive: 1.26.
The figure for GCAGCCUCUUCUAUUUGGCTT against Olfr354 is inactive: -1.35.
Turning to CCUACAGUACUUCAAGCGGTT against Hip1, the z-score was inactive: -1.37.
For the sequence GCAAGUCCCUUGAGGAUAGTT against Vstm2b, the z-score was inactive: 0.419.
The figure for GGGAAUUUCACACUGAGUATT against Tpm4 is inactive: 1.49; for GGAAAUCGAGAGAAAUUCATT against Tead2 it is active: 2.07.
Turning to GCCGUUCACCAUGAAAUGGTT against Prkci, the z-score is inactive: -0.898.
Next, CGGAGUUUUCAAACAUAUGTT against Anapc13: inactive: -1.17.
Next, GGAAAUACUGCUGACCAUUTT against Carnmt1: inactive: 0.655.
The figure for GGAUGAAAUGGAAGAAGAUTT against Barx2 is inactive: -0.319; for CGUGGUCAGCGAGAGAGAATT against Sohlh1 it is inactive: 1.19; for GGGCUAUUAAAUGAUUUCATT against Pax1 it is active: 5.
GGAAGAAGAAAGAUCCAACTT against Trpt1: the z-score was inactive: 1.17.
The figure for GGAAAACUAUCUCCUUUUGTT against Olfr716 is inactive: 0.355; for GGACUCUUUGACCACAAGCTT against Gins3 it is inactive: 0.424; for CCUUUAGCCAGACCAUUGCTT against U2af1 it is inactive: 0.418.
The figure for GGUUGACCUUUAAGUUAAGTT against Tgfa is inactive: -0.201; for CCUUCUCAAGUUCGACGUGTT against Mafb it is inactive: 1.02; for GCCUGCACUUGCUAAGUUGTT against Pla2g5 it is inactive: -0.64.
As for GAGUCCUUGGUACUUUUCCTT against Olfr166, the z-score was inactive: -0.0227.
As for GUGUAGCUAGGAUUGUCAATT against Apol9b, the z-score is inactive: 0.0986.
The figure for CCCAGAACAUCACAUGGGUTT against Olfr464 is inactive: -1.4; for GGUGAGAACCGAGUUCCUGTT against Dip2c it is inactive: 0.674; for GCGAUGAUGUGCUUAUGUCTT against Zfp341 it is inactive: 0.735.
As for GCAAGAUUUUGACCAAAUGTT against Slc30a9, the z-score was inactive: 0.721.
Next, CCAGCAAGAUAAUGGUAUCTT against Grin2a: inactive: -0.0219.
The figure for GCCACGAAGACUAUAUAAGTT against Blvra is inactive: -0.829; for CCUGAACGUGAGUGGAGAATT against Man1c1 it is inactive: -0.8.
Next, GCCUAUGCUUAAUUAGCAUTT against Farp1: inactive: -1.27; GGUCUUUAGCAAAUUGUUCTT against Lrrc6: active: 2.02; CGGCAUCCAGUCUCAGAUGTT against Coch: inactive: 1.88.
As for CCUAGAGAUUGGUAUGUACTT against Tmem132e, the z-score was active: -2.1.
Next, GGAGCUUUUGGACAUUUAUTT against Laptm4a: inactive: 0.427; GCGUGAAGUCUUUCUGGAGTT against Usp20: inactive: 1.42.
Next, GGUGGAAGAGGAGAGUGAATT against Ncl: inactive: -0.284; GGUGUGUGAAAUCACUCACTT against Oxnad1: inactive: 0.303.
The figure for GGUGACAGAGAUUUUCGAATT against Tbc1d22a is inactive: 0.931.
In the case of GGGCUUUCAUUCUUGUAUCTT against Olfr68, the z-score is inactive: 0.732.
For the sequence GGACUUCUUCUUUAGCAGATT against Ddit4l, the z-score was inactive: -0.888.
The figure for GGAGAAACAGAAAGGUCACTT against Pmepa1 is inactive: 0.266.
As for UUGAUUUGGUAGCCUGCUCTT against Olfr1303, the z-score was inactive: 0.962.
Next, GGCACAGAUGUUUUGAGAATT against Surf4: inactive: -0.954; GGAUUCAAGAGAAAAGAACTT against Nop53: inactive: -0.566; GGAGCAAACUUGCUCAGUUTT against Kctd19: inactive: -0.627.
The figure for GCGACUGAUUCCUAUUAAATT against Myd88 is inactive: -1.87.
The figure for GGAGGCAGUGUUUUGUCAATT against Fgd4 is inactive: -0.912.
CGCUAUGGAUAUAAACCAUTT against Pla2g12a: the z-score was inactive: 1.52.
The figure for GGUAACUCCAUUUUAUAGCTT against Adamts12 is inactive: 0.137.
Next, GGAGCAGACUUUAAAAUGATT against Stau1: inactive: -0.626; GGGCUGUCGUGAUUUUUGCTT against Grm7: inactive: 0.188; GGCUUUUCUAGUUCCUCAATT against Pdzd7: active: -2.01.
The figure for GCCCACAAGGAGUGCAUGATT against Cox17 is inactive: -1.37; for GGAGAUCCUCUUCAACAUGTT against Xkr6 it is inactive: -0.483; for GGCUAUGUAGAUCUUGUCATT against Cyb5r1 it is inactive: -1.09.
GCAAGUAUGAGUGUCCCAUTT against Traf6: the z-score is inactive: -1.01.
The figure for CCGAUUGAAUUACUCAGCATT against Bcas2 is inactive: 0.226.
The figure for GCUACUGGUUGGGUUGAAGTT against Tbcd is inactive: 1.47; for “GGACAAAAACAAAUGUGAGTT against 4933417A18Rik” it is active: -2.43; for CGGAUGAUGUAUUUAAAGATT against Ftcd it is inactive: 0.366.
For GGUGAAGAAGGAGACAAAGTT against Tmem43, the z-score was inactive: 0.347.
Next, GGUAAUUAAUUCAAAGCAGTT against St8sia4: inactive: -0.851; GGUGUUUCCGUUGUAAAAATT against Tuba1c: inactive: 0.594.
In the case of GCAGAUGCUGGUUUAAACATT against Zfand5, the z-score was inactive: -0.0514.
For the sequence GCCUAUGAACUUAAUGGCCTT against Zfp180, the z-score was inactive: -0.486.
The figure for CGGUUGACAGGUAUAUCGCTT against Gpr139 is inactive: -0.323; for GCGUGAAUCCAAAUACAGUTT against Tigd3 it is inactive: 0.412; for GCACAACUCCUACAUGGUCTT against Mfsd9 it is inactive: 0.782.
The figure for GGAAGUUUCCAGCAAGACATT against Spn is inactive: -1.2.
On to GCGUGUUUGACCGACACGATT against Plekha3, for which the z-score was inactive: -0.704.
Take CUCUAUGGACUAUAGCUAATT against Tas2r109: the z-score is inactive: -0.324.
The figure for GCGGGAGACAGAAUACGGUTT against Igfbp3 is inactive: 0.171; for GCUAGUAACAGCAAGCUUCTT against Zfp85os it is inactive: 0.856.
Next, GGAACUUCUACAGUCCUCCTT against Parp16: inactive: 0.193; GUUGUUUAUAGCUUAAGGATT against Olfr1450: inactive: -0.577; GGACUCGUUGGUCAUGUCUTT against Ulk4: inactive: 0.586.
Next, GGUUUGUUAGGCAUGAUAATT against Adamts16: inactive: -1.24; GGUGCUUACUGAUUUUUGUTT against Triap1: inactive: 0.669; AUGGUAUACUAUUAUGCUGTT against Mup20: inactive: 1.62.
Regarding GCAGCUGUCAUGUAUACAGTT against Olfr59, the z-score was inactive: -0.867.
For the sequence GGUGGGUGACACUUAAACATT against Vmn1r73, the z-score is inactive: 0.413.
Next, GGCUUCUAAUCAGAUCAGCTT against Tmem251: inactive: 0.334; CCCAGUGUCAUUCAGUAUUTT against Phactr3: active: 2.13; GGACAAAGAAGACUCCCGATT against Dpf2: inactive: -0.402.
The figure for GGGCUAAAGUAUAUCCAUUTT against Mapk1 is inactive: -1.35; for CCUAAACAAGAUGACGACATT against Lonp2 it is inactive: 1.49; for GGUUUGGCCUGGAGUGAAATT against Olfr126 it is inactive: 0.0536.
Consider GAUAUGUUCGACAACGGCATT against Foxd1, for which the z-score is inactive: -0.39.
Regarding CCUAUUCAUGCGUCUGUGGTT against Atp6v0c, the z-score was inactive: -0.278.
Take GCUAAUCCAAUCACUGAUGTT against Zgrf1: the z-score was inactive: -1.82.
The figure for GGAAAGACAUGUAAUAUGUTT against Sdhaf2 is inactive: -0.51; for GGCCUUGCACUUCAGUUUCTT against Mfsd4b1 it is inactive: -0.436; for GGAAUGUCCACAUUUUGUATT against Tigd5 it is inactive: 1.19.
The figure for GGUCGUUCAGAAGCACCAGTT against Aldh16a1 is inactive: -1.31; for GCCCAUUAAUGGGAUAUAATT against Ccdc134 it is inactive: 0.148; for CCACUGACAUUUUUCAAACTT against Tagln3 it is inactive: -1.23.
Next, GGUGUUCGAGAAGCUGAAGTT against Haus7: inactive: -0.371.
